Reference: US8148354B2, “Use of 20(S)-protopanaxadiol in manufacture of antidepressants” (priority 2006, dated 2012)

Tested on: NA Re-uptake
Assay: NA re-uptake test ([3H]-norepinephrine, corpus striatum homogenate)
Type: biochemical, SD rats
Details: concentration 1 μg/ml

## CNCCC(Oc1ccc(C(F)(F)F)cc1)c1ccccc1 (stereo not shown) [Fluoxetine, reference compound]
  Inhibitory rate: 22.9%
